Measured values: patent publication US12075697B2, “Inert solution-processable molecular chromophores for organic electronic devices” (The Regents of the University of California, priority 2012, dated 2024)

Assay: Solar cell device ITO/PEDOT:PSS/DTS(FBTTh2)2:PC71BM/Ca/Al, current-voltage characteristics
Conditions: blend with PC71BM
[1] = 0.4% v/v diiodooctane (DIO), low temperature anneal (70° C.)

CCCCCCc1ccc(-c2ccc(-c3cc(F)c(-c4cc5c(s4)-c4sc(-c6c(F)cc(-c7ccc(-c8ccc(CCCCCC)s8)s7)c7nsnc67)cc4[Si]5(CC(CC)CCCC)CC(CC)CCCC)c4nsnc34)s2)s1 (stereo not drawn) [p-DTS(FBTTh2)2, 7,7′-(4,4-bis(2-ethylhexyl)-4H-silolo[3,2-b:4,5-b′]dithiophene-2,6-diyl)bis(6-fluoro-4-(5′-hexyl-[2,2′-bithiophen]-5-yl)benzo[c][1,2,5]thiadiazole)]
fill factor (FF) [1]: 0.68
open circuit voltage (VOC) [1]: 809 mV
power conversion efficiency (PCE) [1]: 7.0%
short circuit current (JSC) [1]: 12.8 mA cm^−2
fill factor (FF) (as cast): 0.30
open circuit voltage (VOC) (as cast): 680 mV
power conversion efficiency (PCE) (as cast): 1.6%
short circuit current (JSC) (as cast): 7.0 mA cm^−2
fill factor (FF) (thermal annealing at 130° C.): 0.62
open circuit voltage (VOC) (thermal annealing at 130° C.): 820 mV
power conversion efficiency (PCE) (thermal annealing at 130° C.): 5.6%
short circuit current (JSC) (thermal annealing at 130° C.): 11.0 mA cm^−2
